Test results published in publication PMC4403447.

By UniProt entry, the sequences of proteins in these tests, tags left out. Where a name states a change or a piece, a line headed by the entry shows the natural chain unless it says otherwise.
UniProt P10591: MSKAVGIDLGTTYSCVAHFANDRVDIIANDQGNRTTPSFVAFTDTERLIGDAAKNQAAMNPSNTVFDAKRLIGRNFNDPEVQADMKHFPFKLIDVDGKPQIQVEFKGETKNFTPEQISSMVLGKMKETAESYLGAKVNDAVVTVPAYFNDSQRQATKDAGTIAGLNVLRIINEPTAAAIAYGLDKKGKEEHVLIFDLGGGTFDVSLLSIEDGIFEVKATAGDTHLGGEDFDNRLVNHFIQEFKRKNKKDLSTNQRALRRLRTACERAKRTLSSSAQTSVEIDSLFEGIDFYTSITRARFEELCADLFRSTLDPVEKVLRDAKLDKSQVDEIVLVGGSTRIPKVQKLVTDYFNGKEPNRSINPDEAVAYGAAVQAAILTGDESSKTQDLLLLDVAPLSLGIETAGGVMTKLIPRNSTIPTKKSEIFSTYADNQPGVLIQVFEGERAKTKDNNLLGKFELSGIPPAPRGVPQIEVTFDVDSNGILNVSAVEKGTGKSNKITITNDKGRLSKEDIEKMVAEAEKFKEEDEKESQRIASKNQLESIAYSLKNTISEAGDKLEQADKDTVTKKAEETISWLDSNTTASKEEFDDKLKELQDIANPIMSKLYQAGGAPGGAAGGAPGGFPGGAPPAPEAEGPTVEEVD
UniProt P15705: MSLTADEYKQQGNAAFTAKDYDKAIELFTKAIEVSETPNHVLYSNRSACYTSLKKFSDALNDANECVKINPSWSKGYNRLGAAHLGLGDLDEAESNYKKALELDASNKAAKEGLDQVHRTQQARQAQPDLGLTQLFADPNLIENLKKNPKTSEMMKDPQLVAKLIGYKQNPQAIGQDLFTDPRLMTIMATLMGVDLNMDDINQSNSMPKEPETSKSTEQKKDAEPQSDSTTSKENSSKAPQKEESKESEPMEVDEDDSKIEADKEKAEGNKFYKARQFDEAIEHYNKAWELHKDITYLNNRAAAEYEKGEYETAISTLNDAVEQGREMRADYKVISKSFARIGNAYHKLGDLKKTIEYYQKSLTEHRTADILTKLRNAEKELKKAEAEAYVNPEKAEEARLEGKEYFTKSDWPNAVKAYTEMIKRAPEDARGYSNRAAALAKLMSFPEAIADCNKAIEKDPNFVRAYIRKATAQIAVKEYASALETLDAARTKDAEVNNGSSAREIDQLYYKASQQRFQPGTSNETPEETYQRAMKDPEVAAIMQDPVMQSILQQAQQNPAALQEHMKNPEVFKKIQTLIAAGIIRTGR

Molecular target: yHsp70 (Ssa1) (yeast) (UniProt P10591)
Assay: SPR; Hsp70 amine-coupled to a CM5 chip, Sti1 variants as analyte; 40 mM Hepes pH 7.5, 20 mM KCl, 5 mM MgCl2, 0.005% Tween; 10 μl/min; 20 °C; Langmuir isotherm; affinities shown normalized to wild-type Sti1; both purified

## Sti1 Δlinker N39A (from UniProt P15705)
  binding: binds

No constants are given. Whether binding was seen depends on the method and setting. Binding can be weak; no strength is given.
